No constants are given. Whether binding was seen depends on the method and setting. Binding seen in cells or lysates may run through a third protein.

Sequences of proteins named here, by UniProt entry; tags and fusion partners are left off. Residues count along the entry.
UniProt O43157, residues 20-2135: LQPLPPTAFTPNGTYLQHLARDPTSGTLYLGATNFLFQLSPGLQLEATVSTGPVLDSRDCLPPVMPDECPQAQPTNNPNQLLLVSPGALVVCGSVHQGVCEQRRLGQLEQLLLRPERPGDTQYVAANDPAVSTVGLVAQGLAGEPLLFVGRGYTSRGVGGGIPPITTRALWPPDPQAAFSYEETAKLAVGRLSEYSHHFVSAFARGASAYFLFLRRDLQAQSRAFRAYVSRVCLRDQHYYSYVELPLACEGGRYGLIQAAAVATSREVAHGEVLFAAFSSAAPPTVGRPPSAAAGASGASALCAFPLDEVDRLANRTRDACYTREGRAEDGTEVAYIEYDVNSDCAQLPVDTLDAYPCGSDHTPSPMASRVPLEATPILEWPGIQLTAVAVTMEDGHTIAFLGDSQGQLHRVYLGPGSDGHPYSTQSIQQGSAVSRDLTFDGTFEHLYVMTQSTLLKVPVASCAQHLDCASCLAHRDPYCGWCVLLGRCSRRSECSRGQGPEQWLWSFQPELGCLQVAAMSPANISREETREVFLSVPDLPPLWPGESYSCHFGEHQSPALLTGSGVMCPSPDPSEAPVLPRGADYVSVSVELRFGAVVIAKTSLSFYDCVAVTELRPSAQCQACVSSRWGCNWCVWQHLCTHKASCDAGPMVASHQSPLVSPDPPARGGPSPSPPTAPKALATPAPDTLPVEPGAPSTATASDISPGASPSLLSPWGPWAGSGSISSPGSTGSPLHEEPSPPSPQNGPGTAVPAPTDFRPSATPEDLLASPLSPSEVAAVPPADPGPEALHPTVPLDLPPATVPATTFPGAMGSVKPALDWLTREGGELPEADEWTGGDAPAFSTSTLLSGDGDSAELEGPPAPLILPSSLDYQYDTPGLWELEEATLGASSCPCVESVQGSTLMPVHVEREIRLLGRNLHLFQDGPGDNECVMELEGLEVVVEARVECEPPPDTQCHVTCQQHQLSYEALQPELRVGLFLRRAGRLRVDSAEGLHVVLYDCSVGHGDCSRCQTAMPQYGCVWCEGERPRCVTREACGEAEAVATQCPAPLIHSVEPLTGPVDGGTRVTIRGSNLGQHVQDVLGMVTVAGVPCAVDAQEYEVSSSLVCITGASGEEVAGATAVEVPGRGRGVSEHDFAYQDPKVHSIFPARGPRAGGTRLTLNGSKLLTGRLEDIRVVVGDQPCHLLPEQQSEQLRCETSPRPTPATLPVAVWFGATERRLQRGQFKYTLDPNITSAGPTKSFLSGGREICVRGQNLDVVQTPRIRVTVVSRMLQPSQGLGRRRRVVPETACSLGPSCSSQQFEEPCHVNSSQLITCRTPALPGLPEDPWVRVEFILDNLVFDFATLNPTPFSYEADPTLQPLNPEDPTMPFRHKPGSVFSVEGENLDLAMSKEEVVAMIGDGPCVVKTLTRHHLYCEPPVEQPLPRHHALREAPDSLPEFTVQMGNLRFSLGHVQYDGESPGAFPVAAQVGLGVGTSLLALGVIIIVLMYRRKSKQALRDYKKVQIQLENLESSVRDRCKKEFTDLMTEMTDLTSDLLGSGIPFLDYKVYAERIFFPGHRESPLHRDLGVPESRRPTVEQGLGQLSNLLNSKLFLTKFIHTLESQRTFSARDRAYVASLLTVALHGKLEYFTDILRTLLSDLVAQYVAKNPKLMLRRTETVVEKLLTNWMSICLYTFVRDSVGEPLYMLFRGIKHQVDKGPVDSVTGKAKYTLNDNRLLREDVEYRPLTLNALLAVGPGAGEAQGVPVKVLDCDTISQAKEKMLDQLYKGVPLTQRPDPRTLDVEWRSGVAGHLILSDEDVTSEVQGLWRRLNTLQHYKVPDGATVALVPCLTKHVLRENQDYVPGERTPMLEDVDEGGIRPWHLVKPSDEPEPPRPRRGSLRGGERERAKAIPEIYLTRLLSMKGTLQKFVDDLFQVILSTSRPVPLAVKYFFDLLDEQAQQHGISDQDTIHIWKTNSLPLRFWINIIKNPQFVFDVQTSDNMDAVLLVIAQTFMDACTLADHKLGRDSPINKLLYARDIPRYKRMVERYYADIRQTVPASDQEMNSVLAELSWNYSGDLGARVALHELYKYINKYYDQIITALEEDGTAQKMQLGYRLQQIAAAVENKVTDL

These results are taken from paper PMC4138210.

In this assay the target is Plexin-B1 (human (endogenous in MCF-7)) (UniProt O43157). Put plainly: condition: only cells treated with IKK inhibitor SC-514 (50 µM) for 30 minutes; co-IP; as a3, but MCF-7 cells incubated with IKK inhibitor SC-514 (50 µM) for 30 min before lysis.

For “ErbB-2 (from UniProt P04626 23-1255) (receptor)”, the binding result is reported as “no binding”.
